Experimental data published in patent publication US6844320B1, “Treatment of preeclampsia, toxemia and preterm labor with combination of progestational agent and a nitric oxide synthase substrate and/or donor” (Board of Regents, The University of Texas System, priority 1993, dated 2005).

Tested on: pregnant rats
Test: L-NAME infusion to pregnant rats: delivery and pups delivered
Assay type: in vivo
From the text: The data in Table 2 below show the delivery and the pups delivered of L-NAME infusion to pregnant rats.

## COC(=O)[C@@H](N)CCCNC(=N)N[N+](=O)[O-] [L-NAME, N^G-nitro-L-arginine methyl ester]
L-NAME 25 mg/day, 9 animals
  Total # of pups: 65
L-NAME 50 mg/day, 10 animals
  Total # of pups: 56
